The campaign covered roughly 580,000 compounds. About 6,100 (1.1%) were called active. Inconclusive means that the source gave no clear call. Such entries were picked first, then a sample of the others. Calls come from the whole dose curve; as a rule, active = well fitted inhibition curve with a large enough effect; inconclusive = small, poorly fitted or top-dose-only effect, or another doubt; inactive = no such curve, though single readings can be large or run the other way. Where the call is inconclusive, the potency comes from a doubtful curve fit.
Target: Polyunsaturated fatty acid lipoxygenase ALOX12 (Homo sapiens) (UniProt P18054)
Assay: Primary qHTS assay for inhibitors of human arachidonate 12S-lipoxygenase (ALOX12): Round 2
Details: purified 12hLO, xylenol orange hydroperoxide absorbance; series mostly up to 108 µM
How it was run: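 Hydroperoxide product was detected by ferrous iron/xylenol orange as the 573 to 405 nm absorbance ratio. Arachidonic acid at 40 uM (final) was turned over for 30 min at room temperature by 150 nM human 12hLO, pH 7.0 Hepes buffer, after 15 min compound preincubation.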
Potency is the fitted concentration of half-maximal effect.

Amino acid sequences for entries named in this document (tags omitted).
UniProt P18054, whole entry, looked up: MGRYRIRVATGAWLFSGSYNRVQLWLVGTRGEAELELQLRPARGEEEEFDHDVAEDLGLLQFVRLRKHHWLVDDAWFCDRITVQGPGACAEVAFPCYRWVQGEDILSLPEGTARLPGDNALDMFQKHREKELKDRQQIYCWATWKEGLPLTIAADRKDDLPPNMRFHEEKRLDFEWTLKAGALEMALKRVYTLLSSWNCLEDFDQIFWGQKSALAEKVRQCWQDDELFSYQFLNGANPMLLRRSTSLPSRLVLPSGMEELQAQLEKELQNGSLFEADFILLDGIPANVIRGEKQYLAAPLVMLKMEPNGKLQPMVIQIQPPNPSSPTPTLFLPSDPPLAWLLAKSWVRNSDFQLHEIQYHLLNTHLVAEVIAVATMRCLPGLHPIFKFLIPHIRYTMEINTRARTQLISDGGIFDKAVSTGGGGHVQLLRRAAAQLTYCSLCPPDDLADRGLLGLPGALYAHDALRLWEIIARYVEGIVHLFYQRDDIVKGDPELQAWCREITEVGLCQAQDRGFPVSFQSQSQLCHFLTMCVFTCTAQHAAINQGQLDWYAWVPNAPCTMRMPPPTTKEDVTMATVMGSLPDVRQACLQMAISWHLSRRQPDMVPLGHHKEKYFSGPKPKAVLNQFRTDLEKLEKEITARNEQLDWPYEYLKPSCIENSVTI

Row | Compound | Potency
1 | S=C(NCc1ccccc1)Nc1ccc(Oc2ccccc2)cc1 | inconclusive: 25.1 µM [inhibitor, single point]
2 | NNc1nc(-c2ccccc2Cl)nc2sc3c(c12)CCCC3 | inactive
3 | Cc1ccc(NC(=O)C2CCN(c3ncnc4sc(C)c(C)c34)CC2)cc1S(=O)(=O)N(C)C | inactive
4 | Cc1ccc2ccc(S(=O)(=O)NCc3ccco3)cc2c1 | inconclusive: 100 µM [inhibitor, partial curve, poor fit]
5 | O=C(c1ccc2c(c1)OCO2)N1CCc2nc(C3CC3)nc(-c3ccc(Cl)cc3)c2C1 | inconclusive: 39.8 µM [inhibitor, partial curve, poor fit]
6 | O=C(O)C[C@H]1c2ccccc2S(=O)(=O)N1C1CCCC1 | inconclusive: 89.1 µM [inhibitor, single point]
7 | O=C(COc1ccccc1F)N1N=C(c2cccs2)CC1c1ccco1 (stereo not given) | inconclusive: 79.4 µM [inhibitor, single point]
8 | NCCCC[C@@H]1NC(=O)[C@H](CCC(=O)O)NC(=O)c2cc([N+](=O)[O-])cc(I)c2SC[C@@H](C(=O)NCC(N)=O)NC1=O | active: 39.8 µM
9 | CC(=O)Nc1cc(-c2ccoc2)cn2c(-c3ccccc3)cnc12 | inconclusive: 56.2 µM [inhibitor, partial curve, poor fit]
10 | CCn1c(O)c(/C=N/N=C2CCCC2)c2ccc(C3=NNC(=O)CC3)cc21 | inactive
11 | O=C(/C=C/c1ccco1)NC(=S)Nc1ccccc1 | inconclusive: 50.1 µM [inhibitor, partial curve, poor fit]
12 | C=Cc1ccc(Cn2c(C(=O)O)c(CNC3CCCCC3)c3ccc(OC)cc32)cc1 | inconclusive: 15.8 µM [inhibitor, full curve, poor fit]
13 | CCCOC1(C(F)(F)F)NC(=O)N(c2cccc(Cl)c2)C1=O (stereo not given) | inconclusive: 56.2 µM [inhibitor, partial curve, poor fit]
14 | COc1cccc(C(CNCC(O)CN2CCOCC2)c2c[nH]c3ccccc23)c1OC (stereo not given) | inconclusive: 0.316 µM [inhibitor, full curve, poor fit]
15 | Cn1nnnc1SCC(=O)Nc1ccc(Cl)cn1 | inactive
16 | COC(=O)c1ccc(NC(=O)CCc2c(C)nc3c(c(C)nn3C(C)(C)C)c2C)cc1 | inconclusive: 56.2 µM [inhibitor, partial curve, poor fit]
17 | NC(=O)c1ccsc1NC(=O)COC(=O)c1cccnc1Cl | inconclusive: 3.55 µM [inhibitor, full curve, poor fit]
18 | Cc1ccc(NC(=O)c2ccc(NCc3ccco3)c([N+](=O)[O-])c2)cc1Cl | inactive
19 | COc1ccc(/C=C2\Oc3cc(OC(=O)C(C)(C)C)ccc3C2=O)cc1 | inactive
20 | O=c1c2ccccc2nnn1CSc1nnc(-c2ccc3c(c2)OCO3)o1 | inconclusive: 15.8 µM [inhibitor, partial curve, poor fit]

2 neighbouring records out of the list so far, quoted:
Row | Compound | Potency
8 | NCCCC[C@@H]1NC(=O)[C@H](CCC(=O)O)NC(=O)c2cc([N+](=O)[O-])cc(I)c2SC[C@@H](C(=O)NCC(N)=O)NC1=O | active: 39.8 µM
9 | CC(=O)Nc1cc(-c2ccoc2)cn2c(-c3ccccc3)cnc12 | inconclusive: 56.2 µM [inhibitor, partial curve, poor fit]

Further entries

Row | Compound | Potency
21 | CCOc1ccc2c(=O)c(-c3ccc(OC)c(OC)c3)c(C)oc2c1 | inconclusive: 0.224 µM [inhibitor, full curve, poor fit]
22 | CSc1sc(C(=O)NCC2CC2)c(-c2cccs2)c1C#N | inconclusive: 141 µM [inhibitor, single point]
23 | C#CCNC(=O)C[C@@H]1C[C@@]2(C(=O)OC)CCCCC=C2N(CCCCCCCC)C1=O | inconclusive: 158 µM [inhibitor, partial curve, poor fit]
24 | CN(CC(=O)Nc1ccc(Cl)cc1)C(=O)CNC(=O)c1ccc(Br)o1 | inconclusive: 50.1 µM [inhibitor, partial curve, poor fit]
25 | Cc1ccc(-c2nc(CCNC(=O)Nc3cc(F)c(N(C)C)c(F)c3)co2)cc1 | inconclusive: 0.316 µM [inhibitor, full curve, poor fit]
26 | COc1cc(C(=O)Nc2ccc3nc4n(c(=O)c3c2)CCCC4)ccc1Br | inactive
27 | Cc1ccccc1-c1cccc2c3c([nH]c12)[C@@H]1C[C@H]2[C@@H](C(=O)N1CC3)[C@H](C)ON2C | inconclusive: 50.1 µM [inhibitor, partial curve, poor fit]
28 | O=C1Nc2ccccc2N=C(c2ccccc2)C1N1CCOCC1 (stereo not given) | inactive
29 | C=CCN(CC=C)Cc1cc(=O)oc2cc(C)ccc12 | inconclusive: 35.5 µM [inhibitor, partial curve, poor fit]
30 | CCOc1ccc(N2C(=O)C(Cl)=C(N3CCOCC3)C2=O)cc1 | inactive
31 | CCCC(=O)Nc1nc(C)c(-c2csc(Nc3cc(OC)ccc3OC)n2)s1 | inconclusive: 31.6 µM [inhibitor, partial curve, poor fit]
32 | Cc1ccc(C2=NN(S(=O)(=O)c3ccc(F)cc3)C(c3ccc4nccnc4c3)C2)cc1 (stereo not given) | inconclusive: 11.2 µM [inhibitor, full curve, poor fit]
33 | COc1ccccc1OCCNC(=O)C1CC(=O)N(Cc2ccc(C)cc2)C1 (stereo not given) | inconclusive: 63.1 µM [inhibitor, partial curve, poor fit]
34 | CC(C)c1ccc(CNC(=O)c2ccc(Cn3ccn4nc5c(c4c3=O)CCCC5)cc2)cc1 | inactive
35 | CC1=C(C(=O)OCc2ccccc2)C(c2cccc([N+](=O)[O-])c2)NC(=O)N1CCCCCC(=O)O (stereo not given) | inconclusive: 50.1 µM [inhibitor, partial curve, poor fit]
36 | CN(C)CCn1c(NCc2ccc3c(c2)OCO3)nc2ccccc21 | inconclusive: 15.8 µM [inhibitor, full curve]
37 | CCc1ccc(CN2CCC3(Cc4ccccc4CNC3=O)C2)s1 (stereo not given) | inconclusive: 44.7 µM [inhibitor, partial curve, poor fit]
38 | CN(CC(=O)N1CCC(C(N)=O)CC1)S(=O)(=O)c1ccc2ccccc2c1 | inconclusive: 126 µM [inhibitor, single point]
39 | CC(C)CS(=O)(=O)Nc1ccc([C@H]2OCC(=O)N(Cc3ccc(F)cc3)[C@@H]2CO)cc1 | inconclusive: 17.8 µM [inhibitor, full curve]
40 | O=C(c1ccccc1)N1CCC2(C1)C(=NC1CCCC1)NC(=O)N2c1cccnc1 (stereo not given) | inactive
